Taken from: PubChem BioAssay AID686937 (Drosophila RNAi Screening Center, 2013)
Assay: 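Genes in the fly needed for secretion of protein constitutively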 (primary screen). Cell system: Drosophila S2 cells expressing secreted horseradish peroxidase. Knock-down reagent: long dsRNA against Drosophila genes. Duration: about 5.5 days (5 days dsRNA, then 12 h reporter induction). Treatment: reporter expression induced after 5 days of dsRNA, read 12 h later; inducer not stated. Measurement: 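After 5 days of dsRNA and 12 h of reporter induction, medium peroxidase read by chemiluminescence and scored as per-plate z-score; higher values mean more reporter released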. Scale: z-score: higher = more reporter secreted into medium.
The screen tested about 23,000 reagents; shown is a random part of those that have a named target and a result. 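Reduced-secretion tags in replicate 1 do not always agree with the z-scores; no criterion for assigning the tags was given.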 Names joined by + are all predicted targets of the reagent. The record does not give: the amount of reagent.

Gene | dsRNA | z-score, replicate 1 | z-score, replicate 2 | z-score, replicate 3 | z-score, replicate 4 | phenotype, replicate 1
Cpr50Cb | DRSC06975 | 0.33 | 0.3 | – | – | –
tsu | DRSC07265 | 0.23 | 0.37 | – | – | –
CR34254 | DRSC09562 | -0.65 | -0.09 | – | – | –
FucT6 | DRSC19848 | -0.62 | -0.27 | – | – | –
CG1143 | DRSC08188 | -0.01 | 0.25 | – | – | –
mAChR-A | DRSC04702 | 0.6 | 0.65 | – | – | –
Osi16 | DRSC12135 | 0.51 | 0.53 | – | – | –
Osi16 | DRSC21323 | 1.52 | 1.68 | – | – | –
CG18557 | DRSC00524 | 0.12 | 0 | – | – | –
Sf3b2 | DRSC00619 | -4.41 | -2.82 | – | – | reduced secretion
CG16904 | DRSC15161 | 0.35 | 0.49 | – | – | –
CG11360 | DRSC17124 | 0.33 | 0.35 | – | – | –
CG11360 | DRSC17134 | 0.17 | -5.62 | – | – | –
CG43110 | DRSC05661 | 0.26 | 0.24 | – | – | –
CG33140 | DRSC06030 | 0.15 | 0.22 | – | – | –
CG12477 | DRSC09886 | 0.28 | 0.06 | – | – | –
CG6225 | DRSC15996 | 0.02 | 0.14 | – | – | –
Gr47b | DRSC05275 | 0.26 | 0.09 | – | – | –
MED15 | DRSC00267 | -3.6 | -3.55 | – | – | reduced secretion
CG43307 | DRSC00893 | 0.83 | 0.54 | -0.12 | -0.33 | –
CoRest | DRSC19881 | 0.5 | 0.56 | – | – | –
CoRest | DRSC21626 | 0.83 | -0.56 | – | – | –
CoRest | DRSC22305 | -0.8 | -1.65 | – | – | reduced secretion
CG32755 | DRSC18397 | 0.29 | 0.34 | – | – | –
lncRNA:CR33218 | DRSC22944 | -1.09 | -0.1 | – | – | –
CG9582 | DRSC03267 | 0.24 | 0.08 | – | – | –
Csl4 | DRSC02944 | 0.25 | 0.24 | – | – | –
Csl4 | DRSC22664 | -0.6 | 0.04 | – | – | –
CG33655 | DRSC03858 | -0.26 | 0.21 | – | – | –
CG18666 | DRSC02694 | -0.12 | 0.3 | – | – | –
Tmhs | DRSC08231 | -0.58 | -0.48 | – | – | –
Cyp6a17 | DRSC07378 | 0.29 | 0.3 | – | – | –
CG12061 | DRSC20715 | -0.02 | 0.21 | – | – | –
NK7.1 | DRSC16755 | 0.54 | 0.57 | – | – | –
Scp2 | DRSC13166 | 0.73 | 0.32 | – | – | –
Scp2 | DRSC16854 | 0.28 | -0.73 | – | – | –
CG10472 | DRSC09730 | 0.3 | 0.15 | – | – | –
PMCA | DRSC17113 | 0.61 | 0.03 | – | – | –
PMCA | DRSC17114 | 0.72 | 0.09 | – | – | –
PMCA | DRSC17154 | -0.55 | -0.07 | – | – | –
Lip1 | DRSC03364 | -0.12 | 0.27 | – | – | –
CG9689 | DRSC18440 | 0.16 | 0.35 | – | – | –

Look-ups from the entries so far.
CG6225 [DRSC15996], z-score, replicate 2: 0.14
Entry of NK7.1 [DRSC16755] in “z-score, replicate 2”: 0.57
Result for Lip1 [DRSC03364] in “z-score, replicate 2”: 0.27
CoRest [DRSC22305], z-score, replicate 1: -0.8
CG1143 [DRSC08188], z-score, replicate 1 → -0.01
Value of CG43110 [DRSC05661] in “z-score, replicate 1”: 0.26

The list goes on:
Gene | dsRNA | z-score, replicate 1 | z-score, replicate 2 | z-score, replicate 3 | z-score, replicate 4 | phenotype, replicate 1
Prp31 | DRSC10735 | -1.39 | -1.11 | – | – | –
CG43326 + CG43325 | DRSC04157 | 0.25 | 0.37 | – | – | –
mRpL48 | DRSC00506 | 0.53 | 0.37 | – | – | –
CG9926 | DRSC16582 | -0.35 | -0.37 | – | – | –
beat-Ic | DRSC01524 | 0.33 | 0.21 | – | – | –
beat-Ic | DRSC03491 | -0.71 | 0.03 | – | – | –
Tace | DRSC16340 | 0.57 | 0.65 | – | – | –
ema | DRSC14536 | -0.55 | -0.23 | – | – | –
Tsp42Ep | DRSC06871 | 0.23 | 0.25 | – | – | –
CG11566 (retired record) + stg1 | DRSC20473 | -4.55 | -2.43 | – | – | reduced secretion
CG11566 (retired record) + stg1 | DRSC20481 | 0.46 | 0.41 | – | – | –
CG11566 (retired record) + stg1 | DRSC20482 | 0.47 | 0.07 | – | – | –
CG11566 (retired record) + stg1 | DRSC20483 | 0.39 | 0.13 | – | – | –
MAN1 | DRSC04342 | 0.23 | 0.23 | – | – | –
CG8420 | DRSC16418 | -0.12 | 0.57 | – | – | –
CG13738 | DRSC10065 | -0.91 | -0.79 | – | – | –
ntc | DRSC08166 | 0.34 | 0.29 | – | – | –
dmGlut | DRSC02835 | 0.1 | 0.34 | – | – | –
CG31058 (retired record) | DRSC15840 | -3.23 | -0.28 | – | – | reduced secretion
alpha-Est6 | DRSC12618 | 0.32 | 0.34 | – | – | –
CG15517 | DRSC15056 | 0.12 | 0.37 | – | – | –
CG8611 | DRSC19340 | 0.23 | 0.33 | – | – | –
Sam-S | DRSC00758 | -1.89 | -1.97 | – | – | reduced secretion
CG12239 | DRSC17832 | -0.05 | -0.02 | – | – | –
Setd3 | DRSC17840 | 0.15 | 0.41 | – | – | –
Setd3 | DRSC18269 | 0.33 | 0.55 | – | – | –
lncRNA:sphinx | DRSC17199 | -0.04 | -0.24 | – | – | –
CG3690 | DRSC18170 | 0.47 | 0.42 | – | – | –
CG3690 | DRSC18641 | 0.42 | 0.33 | – | – | –
CG43077 | DRSC19168 | -0.11 | 1.06 | – | – | –
CG11191 | DRSC06056 | 0.18 | 0.12 | – | – | –
CG4572 | DRSC15603 | 0.31 | 0.31 | – | – | –
HINT1 | DRSC00548 | 0.26 | 0.31 | – | – | –
Acp1 | DRSC01854 | 0.3 | 0.29 | – | – | –
mRF1 | DRSC02880 | 0.32 | 0.26 | – | – | –
lncRNA:roX2 | DRSC22237 | 0.31 | 0.79 | – | – | –
Lmpt | DRSC09450 | 0.69 | 0.14 | 0.43 | 0.21 | –
Lmpt | DRSC09864 | 0.2 | 0.29 | – | – | –
Lmpt | DRSC09865 | 0.28 | 0.46 | – | – | –
Lmpt | DRSC09866 | 0.09 | 0.15 | – | – | –
Lmpt | DRSC11107 | 0.11 | 0.17 | – | – | –
Lmpt | DRSC21738 | -0.82 | 0.2 | – | – | –
Lmpt | DRSC22921 | 0.24 | 0.26 | – | – | –
